From ChEMBL document CHEMBL5674883, “The Heterochromatin Landscape in Migrating Cells and the Importance of H3K27me3 for Associated Transcriptome Alterations” (Cells, 2018)
Further values from the same series stand in other lists.

Amino acid sequences for entries named in this document (tags omitted).
UniProt Q61188, whole entry: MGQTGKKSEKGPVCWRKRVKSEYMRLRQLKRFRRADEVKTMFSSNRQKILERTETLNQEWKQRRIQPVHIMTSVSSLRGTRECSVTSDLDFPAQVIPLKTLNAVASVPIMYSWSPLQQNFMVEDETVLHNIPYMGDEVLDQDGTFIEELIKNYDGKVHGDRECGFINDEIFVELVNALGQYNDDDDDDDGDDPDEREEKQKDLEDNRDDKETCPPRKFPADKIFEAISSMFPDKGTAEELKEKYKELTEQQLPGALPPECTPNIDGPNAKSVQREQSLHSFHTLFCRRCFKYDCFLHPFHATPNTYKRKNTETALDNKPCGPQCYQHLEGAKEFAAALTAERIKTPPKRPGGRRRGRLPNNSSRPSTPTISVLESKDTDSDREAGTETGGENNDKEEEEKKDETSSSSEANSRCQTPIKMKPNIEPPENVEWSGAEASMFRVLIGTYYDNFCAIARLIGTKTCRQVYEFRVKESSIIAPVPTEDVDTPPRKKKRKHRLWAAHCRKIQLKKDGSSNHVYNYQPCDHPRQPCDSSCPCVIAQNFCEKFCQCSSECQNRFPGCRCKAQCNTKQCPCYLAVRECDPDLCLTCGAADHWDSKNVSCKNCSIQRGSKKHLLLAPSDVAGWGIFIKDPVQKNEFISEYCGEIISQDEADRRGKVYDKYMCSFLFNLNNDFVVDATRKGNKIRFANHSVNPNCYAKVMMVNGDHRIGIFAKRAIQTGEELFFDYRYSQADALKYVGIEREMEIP

Columns and labels:
Assay type in all cases: cell-based
[1] = target: Histone-lysine N-methyltransferase EZH2 (Mus musculus) (UniProt Q61188); assay: Inhibition of EZH2 in mouse B16-F1 migrating cells assessed as fold change in H3K27me3-independent regulated Rgma-mRNA expression at 3 uM measured by ChIP-seq analysis relative to control cells
[2] = target: Histone-lysine N-methyltransferase EZH2 (Mus musculus) (UniProt Q61188); assay: Inhibition of EZH2 in mouse B16-F1 migrating cells assessed as fold change in H3K27me3-buffered regulated Stard13-mRNA expression at 3 uM measured by ChIP-seq analysis relative to control cells
[3] = target: Histone-lysine N-methyltransferase EZH2 (Mus musculus) (UniProt Q61188); assay: Inhibition of EZH2 in mouse B16-F1 migrating cells assessed as fold change in H3K27me3-buffered regulated Zbtb26-mRNA expression at 3 uM measured by ChIP-seq analysis relative to control cells
[4] = target: Histone-lysine N-methyltransferase EZH2 (Mus musculus) (UniProt Q61188); assay: Inhibition of EZH2 in mouse B16-F1 migrating cells assessed as fold change in H3K27me3-dependent regulated Zfp934-mRNA expression at 3 uM measured by ChIP-seq analysis relative to control cells
[5] = target: Histone-lysine N-methyltransferase EZH2 (Mus musculus) (UniProt Q61188); assay: Inhibition of EZH2 in mouse B16-F1 migrating cells assessed as fold change in H3K27me3-independent regulated Pmepa1-mRNA expression at 3 uM measured by ChIP-seq analysis relative to control cells
[6] = target: Histone-lysine N-methyltransferase EZH2 (Mus musculus) (UniProt Q61188); assay: Inhibition of EZH2 in mouse B16-F1 migrating cells assessed as fold change in H3K27me3-buffered regulated Jcad-mRNA expression at 3 uM measured by ChIP-seq analysis relative to control cells
[7] = target: Histone-lysine N-methyltransferase EZH2 (Mus musculus) (UniProt Q61188); assay: Inhibition of EZH2 in mouse B16-F1 migrating cells assessed as fold change in H3K27me3-buffered regulated Ube2t-mRNA expression at 3 uM measured by ChIP-seq analysis relative to control cells
[8] = target: Histone-lysine N-methyltransferase EZH2 (Mus musculus) (UniProt Q61188); assay: Inhibition of EZH2 in mouse B16-F1 migrating cells assessed as fold change in H3K27me3-buffered regulated Rrnad1-mRNA expression at 3 uM measured by ChIP-seq analysis relative to control cells
[9] = target: Histone-lysine N-methyltransferase EZH2 (Mus musculus) (UniProt Q61188); assay: Inhibition of EZH2 in mouse B16-F1 migrating cells assessed as fold change in H3K27me3-independent regulated Espn-mRNA expression at 3 uM measured by ChIP-seq analysis relative to control cells
[10] = target: Histone-lysine N-methyltransferase EZH2 (Mus musculus) (UniProt Q61188); assay: Inhibition of EZH2 in mouse B16-F1 migrating cells assessed as fold change in H3K27me3-dependent regulated Rhob-mRNA expression at 3 uM measured by ChIP-seq analysis relative to control cells
[11] = target: Histone-lysine N-methyltransferase EZH2 (Mus musculus) (UniProt Q61188); assay: Inhibition of EZH2 in mouse B16-F1 migrating cells assessed as fold change in H3K27me3-buffered regulated Morn2-mRNA expression at 3 uM measured by ChIP-seq analysis relative to control cells
[12] = target: T1, RNA polymerase II (Mus musculus) (UniProt P08775+Q8CFI7+P97760+A0A3Q4L2S8+Q80UW8+P61219+P62488+Q923G2+P60898+O08740+Q63871+P62876); assay: Inhibition of RNA polymerase II in mouse B16-F1 migrating cells assessed as fold change in U2surp-RNA stability at 0.1 mM measured by ChIP-seq analysis relative to control cells
[13] = target: T1, RNA polymerase II (Mus musculus); assay: Inhibition of RNA polymerase II in mouse B16-F1 migrating cells assessed as fold change in Mgll-RNA stability at 0.1 mM measured by ChIP-seq analysis relative to control cells
[14] = target: T1, RNA polymerase II (Mus musculus); assay: Inhibition of RNA polymerase II in mouse B16-F1 migrating cells assessed as fold change in Mfsd14b-RNA stability at 0.1 mM measured by ChIP-seq analysis relative to control cells
[15] = target: T1, RNA polymerase II (Mus musculus); assay: Inhibition of RNA polymerase II in mouse B16-F1 migrating cells assessed as fold change in Zbtb41-RNA stability at 0.1 mM measured by ChIP-seq analysis relative to control cells
[16] = target: T1, RNA polymerase II (Mus musculus); assay: Inhibition of RNA polymerase II in mouse B16-F1 migrating cells assessed as fold change in Cisd3-RNA stability at 0.1 mM measured by ChIP-seq analysis relative to control cells
[17] = target: T1, RNA polymerase II (Mus musculus); assay: Inhibition of RNA polymerase II in mouse B16-F1 migrating cells assessed as fold change in Scfd1-RNA stability at 0.1 mM measured by ChIP-seq analysis relative to control cells
[18] = target: T1, RNA polymerase II (Mus musculus); assay: Inhibition of RNA polymerase II in mouse B16-F1 migrating cells assessed as fold change in Hnrnph1-RNA stability at 0.1 mM measured by ChIP-seq analysis relative to control cells
[19] = target: T1, RNA polymerase II (Mus musculus); assay: Inhibition of RNA polymerase II in mouse B16-F1 migrating cells assessed as fold change in Acbd5-RNA stability at 0.1 mM measured by ChIP-seq analysis relative to control cells
[20] = target: T1, RNA polymerase II (Mus musculus); assay: Inhibition of RNA polymerase II in mouse B16-F1 migrating cells assessed as fold change in Fam174b-RNA stability at 0.1 mM measured by ChIP-seq analysis relative to control cells
[21] = target: T1, RNA polymerase II (Mus musculus); assay: Inhibition of RNA polymerase II in mouse B16-F1 migrating cells assessed as fold change in Tmem161b-RNA stability at 0.1 mM measured by ChIP-seq analysis relative to control cells
[22] = target: T1, RNA polymerase II (Mus musculus); assay: Inhibition of RNA polymerase II in mouse B16-F1 migrating cells assessed as fold change in Azi2-RNA stability at 0.1 mM measured by ChIP-seq analysis relative to control cells
[23] = target: T1, RNA polymerase II (Mus musculus); assay: Inhibition of RNA polymerase II in mouse B16-F1 migrating cells assessed as fold change in Alyref-RNA stability at 0.1 mM measured by ChIP-seq analysis relative to control cells
[24] = target: T1, RNA polymerase II (Mus musculus); assay: Inhibition of RNA polymerase II in mouse B16-F1 migrating cells assessed as fold change in Zhx1-RNA stability at 0.1 mM measured by ChIP-seq analysis relative to control cells
[25] = target: T1, RNA polymerase II (Mus musculus); assay: Inhibition of RNA polymerase II in mouse B16-F1 migrating cells assessed as fold change in Gapdh-RNA stability at 0.1 mM measured by ChIP-seq analysis relative to control cells
[26] = target: T1, RNA polymerase II (Mus musculus); assay: Inhibition of RNA polymerase II in mouse B16-F1 migrating cells assessed as fold change in Susd6-RNA stability at 0.1 mM measured by ChIP-seq analysis relative to control cells
[27] = target: T1, RNA polymerase II (Mus musculus); assay: Inhibition of RNA polymerase II in mouse B16-F1 migrating cells assessed as fold change in Sept7-RNA stability at 0.1 mM measured by ChIP-seq analysis relative to control cells
[28] = target: T1, RNA polymerase II (Mus musculus); assay: Inhibition of RNA polymerase II in mouse B16-F1 migrating cells assessed as fold change in Socs6-RNA stability at 0.1 mM measured by ChIP-seq analysis relative to control cells
[29] = target: T1, RNA polymerase II (Mus musculus); assay: Inhibition of RNA polymerase II in mouse B16-F1 migrating cells assessed as fold change in Trim11-RNA stability at 0.1 mM measured by ChIP-seq analysis relative to control cells
[30] = target: T1, RNA polymerase II (Mus musculus); assay: Inhibition of RNA polymerase II in mouse B16-F1 migrating cells assessed as fold change in Usp1-RNA stability at 0.1 mM measured by ChIP-seq analysis relative to control cells

CCCc1cc(C)[nH]c(=O)c1CNC(=O)c1cc(-c2ccnc(N3CCN(C)CC3)c2)cc2c1cnn2C(C)C
log2FC [1]: -0.72 | log2FC [2]: -0.38 | log2FC [3]: -0.48 | log2FC [4]: -0.51 | log2FC [5]: 0.84 | log2FC [6]: 0.39 | log2FC [7]: -0.51 | log2FC [8]: -0.48 | log2FC [9]: 0.79 | log2FC [10]: 0.33 | log2FC [11]: 0.47

OC[C@H]1O[C@@H](n2cnc3cc(Cl)c(Cl)cc32)[C@H](O)[C@@H]1O
log2FC [12]: -0.85 | log2FC [13]: 0.38 | log2FC [14]: -0.49 | log2FC [15]: -0.61 | log2FC [16]: 0.6 | log2FC [17]: -0.59 | log2FC [18]: -0.62 | log2FC [19]: -0.63 | log2FC [20]: 0.49 | log2FC [21]: -0.69 | log2FC [22]: -0.46 | log2FC [23]: -0.87 | log2FC [24]: -0.66 | log2FC [25]: 0.6 | log2FC [26]: -0.53 | log2FC [27]: -0.69 | log2FC [28]: -0.58 | log2FC [29]: -0.59 | log2FC [30]: -0.57
